# Measurements: the supplement of paper PMC12823440, “Inhibitors supercharge kinase turnover through native proteolytic circuits” (Nature, 2025)
# By UniProt entry, the sequences of proteins in these tests, tags left out. Where a name states a change or a piece, a line headed by the entry shows the natural chain unless it says otherwise.
# UniProt Q14289, whole entry, looked up: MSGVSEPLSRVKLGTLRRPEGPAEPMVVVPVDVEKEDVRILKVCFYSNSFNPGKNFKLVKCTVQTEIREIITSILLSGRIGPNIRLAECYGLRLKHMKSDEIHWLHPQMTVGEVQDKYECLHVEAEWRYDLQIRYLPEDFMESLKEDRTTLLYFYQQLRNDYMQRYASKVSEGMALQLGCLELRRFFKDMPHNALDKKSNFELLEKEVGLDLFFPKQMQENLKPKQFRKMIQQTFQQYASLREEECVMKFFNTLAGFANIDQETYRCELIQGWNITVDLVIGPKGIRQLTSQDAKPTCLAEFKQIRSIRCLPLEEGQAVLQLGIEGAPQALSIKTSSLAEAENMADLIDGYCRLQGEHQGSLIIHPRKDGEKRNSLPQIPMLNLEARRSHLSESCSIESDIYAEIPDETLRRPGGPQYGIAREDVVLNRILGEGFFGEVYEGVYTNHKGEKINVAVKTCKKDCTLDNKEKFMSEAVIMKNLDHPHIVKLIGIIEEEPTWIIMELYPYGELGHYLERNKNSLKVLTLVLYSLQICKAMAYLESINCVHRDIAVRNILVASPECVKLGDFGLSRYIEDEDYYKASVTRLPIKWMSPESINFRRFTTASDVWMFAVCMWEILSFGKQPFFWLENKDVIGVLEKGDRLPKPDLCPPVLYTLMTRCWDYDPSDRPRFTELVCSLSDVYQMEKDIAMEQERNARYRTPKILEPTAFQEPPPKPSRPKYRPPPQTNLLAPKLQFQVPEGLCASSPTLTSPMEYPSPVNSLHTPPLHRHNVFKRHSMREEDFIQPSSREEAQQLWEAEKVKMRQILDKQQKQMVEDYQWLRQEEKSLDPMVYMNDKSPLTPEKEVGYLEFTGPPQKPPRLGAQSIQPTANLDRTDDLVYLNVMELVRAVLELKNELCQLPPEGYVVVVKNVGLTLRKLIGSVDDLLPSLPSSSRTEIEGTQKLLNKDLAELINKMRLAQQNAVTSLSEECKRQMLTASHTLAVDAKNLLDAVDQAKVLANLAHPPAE
# UniProt Q9BRS2: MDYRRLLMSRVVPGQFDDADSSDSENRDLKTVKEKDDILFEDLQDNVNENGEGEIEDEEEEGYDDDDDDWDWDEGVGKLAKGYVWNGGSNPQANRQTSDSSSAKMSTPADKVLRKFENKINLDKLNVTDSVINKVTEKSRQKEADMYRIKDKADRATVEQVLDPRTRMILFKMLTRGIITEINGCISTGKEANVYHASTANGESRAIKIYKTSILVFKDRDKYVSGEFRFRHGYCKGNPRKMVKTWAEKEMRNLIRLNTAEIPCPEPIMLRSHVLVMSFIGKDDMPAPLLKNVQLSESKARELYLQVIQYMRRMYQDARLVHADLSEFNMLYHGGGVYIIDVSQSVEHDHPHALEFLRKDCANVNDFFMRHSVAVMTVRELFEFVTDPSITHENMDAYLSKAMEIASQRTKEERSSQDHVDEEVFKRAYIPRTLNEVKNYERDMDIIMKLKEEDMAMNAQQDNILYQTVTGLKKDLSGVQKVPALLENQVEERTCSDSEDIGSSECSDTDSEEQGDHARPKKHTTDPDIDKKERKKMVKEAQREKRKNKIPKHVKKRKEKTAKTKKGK
# UniProt Q01974, whole entry: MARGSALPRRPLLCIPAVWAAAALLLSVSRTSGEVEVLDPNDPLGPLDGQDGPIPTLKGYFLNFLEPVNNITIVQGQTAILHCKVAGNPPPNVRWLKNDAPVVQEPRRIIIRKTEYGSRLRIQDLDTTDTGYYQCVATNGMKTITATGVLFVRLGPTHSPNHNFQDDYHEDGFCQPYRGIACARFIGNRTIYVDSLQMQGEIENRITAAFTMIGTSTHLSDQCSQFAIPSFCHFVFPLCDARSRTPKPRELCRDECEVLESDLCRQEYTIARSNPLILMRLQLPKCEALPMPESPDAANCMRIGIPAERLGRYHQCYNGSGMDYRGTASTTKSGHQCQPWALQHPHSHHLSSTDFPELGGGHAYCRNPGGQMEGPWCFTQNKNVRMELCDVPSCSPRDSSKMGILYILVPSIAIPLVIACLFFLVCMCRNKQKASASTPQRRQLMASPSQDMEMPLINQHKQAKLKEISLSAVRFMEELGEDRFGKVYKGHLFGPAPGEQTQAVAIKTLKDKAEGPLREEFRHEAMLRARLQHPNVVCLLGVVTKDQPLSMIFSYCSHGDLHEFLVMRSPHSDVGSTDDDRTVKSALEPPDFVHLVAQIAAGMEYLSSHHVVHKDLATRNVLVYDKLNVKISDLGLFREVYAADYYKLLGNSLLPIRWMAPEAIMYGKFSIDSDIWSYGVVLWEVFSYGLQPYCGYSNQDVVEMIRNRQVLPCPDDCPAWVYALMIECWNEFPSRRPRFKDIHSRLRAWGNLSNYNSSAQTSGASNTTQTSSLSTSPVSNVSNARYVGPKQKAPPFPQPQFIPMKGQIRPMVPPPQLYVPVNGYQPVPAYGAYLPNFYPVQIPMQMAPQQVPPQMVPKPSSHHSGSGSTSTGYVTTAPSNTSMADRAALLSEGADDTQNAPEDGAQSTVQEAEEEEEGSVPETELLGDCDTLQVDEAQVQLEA
# UniProt Q15418, whole entry: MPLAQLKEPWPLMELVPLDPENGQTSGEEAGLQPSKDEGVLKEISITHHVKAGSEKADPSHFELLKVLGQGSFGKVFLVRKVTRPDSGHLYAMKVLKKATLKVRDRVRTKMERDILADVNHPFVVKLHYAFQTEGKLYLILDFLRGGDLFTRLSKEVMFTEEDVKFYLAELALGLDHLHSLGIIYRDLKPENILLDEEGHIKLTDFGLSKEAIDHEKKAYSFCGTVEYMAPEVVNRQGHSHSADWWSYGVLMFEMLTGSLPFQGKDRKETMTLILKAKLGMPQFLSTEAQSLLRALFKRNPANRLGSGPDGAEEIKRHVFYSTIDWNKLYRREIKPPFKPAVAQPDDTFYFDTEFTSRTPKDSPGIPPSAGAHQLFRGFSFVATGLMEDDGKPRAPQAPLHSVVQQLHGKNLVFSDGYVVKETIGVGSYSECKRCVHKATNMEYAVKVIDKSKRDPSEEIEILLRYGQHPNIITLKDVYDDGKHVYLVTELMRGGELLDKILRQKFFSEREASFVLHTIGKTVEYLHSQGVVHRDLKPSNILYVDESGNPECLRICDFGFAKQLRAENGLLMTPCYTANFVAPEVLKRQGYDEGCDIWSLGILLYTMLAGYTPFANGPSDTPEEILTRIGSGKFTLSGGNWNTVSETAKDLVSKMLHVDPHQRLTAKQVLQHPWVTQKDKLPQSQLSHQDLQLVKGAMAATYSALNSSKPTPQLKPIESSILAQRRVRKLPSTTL
# UniProt P42680: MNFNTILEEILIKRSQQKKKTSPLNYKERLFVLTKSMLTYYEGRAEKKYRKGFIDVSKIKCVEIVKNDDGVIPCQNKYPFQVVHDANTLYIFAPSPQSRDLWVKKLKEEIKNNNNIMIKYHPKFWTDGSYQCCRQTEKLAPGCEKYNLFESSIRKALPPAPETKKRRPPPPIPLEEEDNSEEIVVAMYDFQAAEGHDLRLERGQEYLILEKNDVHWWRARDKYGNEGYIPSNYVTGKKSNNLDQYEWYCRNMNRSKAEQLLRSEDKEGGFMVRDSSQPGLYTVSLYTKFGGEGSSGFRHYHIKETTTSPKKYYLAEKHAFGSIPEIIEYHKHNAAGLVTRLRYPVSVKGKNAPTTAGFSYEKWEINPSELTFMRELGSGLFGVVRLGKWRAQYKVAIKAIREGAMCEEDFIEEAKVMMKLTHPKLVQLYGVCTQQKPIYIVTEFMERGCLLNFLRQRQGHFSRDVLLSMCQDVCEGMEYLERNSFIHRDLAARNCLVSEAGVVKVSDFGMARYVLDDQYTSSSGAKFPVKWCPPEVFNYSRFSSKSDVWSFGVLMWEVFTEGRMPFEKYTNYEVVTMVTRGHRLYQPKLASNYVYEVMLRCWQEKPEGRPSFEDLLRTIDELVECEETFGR
# UniProt P29597: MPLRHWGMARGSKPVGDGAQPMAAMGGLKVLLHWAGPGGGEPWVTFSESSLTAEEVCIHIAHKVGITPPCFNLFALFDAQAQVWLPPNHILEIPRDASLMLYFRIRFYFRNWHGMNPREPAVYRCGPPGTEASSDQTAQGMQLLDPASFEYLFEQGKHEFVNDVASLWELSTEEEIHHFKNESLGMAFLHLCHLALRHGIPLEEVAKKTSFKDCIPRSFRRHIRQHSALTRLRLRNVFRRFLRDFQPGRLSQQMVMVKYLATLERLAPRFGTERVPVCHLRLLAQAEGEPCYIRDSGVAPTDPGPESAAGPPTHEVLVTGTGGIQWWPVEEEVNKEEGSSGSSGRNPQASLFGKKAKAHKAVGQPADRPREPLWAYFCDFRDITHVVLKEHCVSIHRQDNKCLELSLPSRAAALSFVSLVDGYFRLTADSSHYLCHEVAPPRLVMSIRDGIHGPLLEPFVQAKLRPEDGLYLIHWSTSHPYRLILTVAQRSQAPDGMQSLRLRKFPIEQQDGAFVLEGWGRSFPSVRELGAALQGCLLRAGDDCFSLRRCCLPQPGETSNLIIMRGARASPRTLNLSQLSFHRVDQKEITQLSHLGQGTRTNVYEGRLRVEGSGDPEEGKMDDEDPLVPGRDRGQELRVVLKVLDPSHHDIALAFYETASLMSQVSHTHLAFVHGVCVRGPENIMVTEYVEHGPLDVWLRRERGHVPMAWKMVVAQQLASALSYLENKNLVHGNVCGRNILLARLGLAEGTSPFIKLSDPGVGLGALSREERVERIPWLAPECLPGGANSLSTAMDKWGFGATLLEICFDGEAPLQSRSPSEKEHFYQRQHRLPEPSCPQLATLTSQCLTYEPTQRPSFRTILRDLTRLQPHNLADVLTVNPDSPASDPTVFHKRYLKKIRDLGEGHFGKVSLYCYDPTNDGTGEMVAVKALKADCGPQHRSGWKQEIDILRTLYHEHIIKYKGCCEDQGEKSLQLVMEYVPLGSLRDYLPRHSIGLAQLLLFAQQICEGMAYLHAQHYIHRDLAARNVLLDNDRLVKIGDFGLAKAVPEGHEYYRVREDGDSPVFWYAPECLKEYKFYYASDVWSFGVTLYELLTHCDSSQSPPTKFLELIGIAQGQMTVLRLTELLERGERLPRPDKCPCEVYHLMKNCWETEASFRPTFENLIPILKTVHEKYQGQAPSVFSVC
# UniProt Q6PHR2: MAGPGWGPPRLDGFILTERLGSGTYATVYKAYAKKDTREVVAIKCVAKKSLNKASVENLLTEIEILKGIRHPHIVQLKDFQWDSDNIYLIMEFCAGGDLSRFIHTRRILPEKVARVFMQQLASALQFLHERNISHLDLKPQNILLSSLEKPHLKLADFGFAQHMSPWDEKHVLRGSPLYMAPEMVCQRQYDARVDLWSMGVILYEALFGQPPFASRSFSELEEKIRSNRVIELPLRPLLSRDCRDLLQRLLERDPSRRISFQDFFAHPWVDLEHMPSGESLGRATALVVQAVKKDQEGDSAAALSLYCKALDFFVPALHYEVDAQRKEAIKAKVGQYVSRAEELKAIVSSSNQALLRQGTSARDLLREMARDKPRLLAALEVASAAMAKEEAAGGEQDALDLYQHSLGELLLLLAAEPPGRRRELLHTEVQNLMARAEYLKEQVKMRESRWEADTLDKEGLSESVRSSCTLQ
# Some of the results follow. The calls rarely recur for the same compound in another form.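 Kinases were expressed as nanoluciferase fusions in K562 cells and luminescence was read every 4 h between 2 and 18 h as percent of control, DMSO set to 100% and a positive control to 0%. A time point counts as decreased when the signal drops significantly (2 sigma). The hit call is the authors' own, does not follow from the count of time points alone, and its rule is not shown.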
# How the values were obtained:
# Experiment in all cases: number of time points (of 5) at which kinase-Nluc abundance scored as decreased, DMSO-normalised (count); higher = more persistent destabilization
# Conditions in all cases: K562; 2-18 h
# PRKCA = PRKCA (UniProt P17252)
# PTK2 = PTK2 (UniProt Q05397)
# PTK2B = PTK2B (UniProt Q14289)
# RAF1 = RAF1 (UniProt P04049)
# [1] = biological target: RAF1_S257L (clone: RAF1_mut) (UniProt P04049)
# RET = RET (UniProt P07949)
# [2] = biological target: RET_M918T (clone: RET_mut) (UniProt P07949)
# RIOK1 = RIOK1 (UniProt Q9BRS2)
# RIPK1 = RIPK1 (UniProt Q13546)
# RIPK2 = RIPK2 (UniProt O43353)
# ROR2 = ROR2 (UniProt Q01974)
# RPS6KA1 = RPS6KA1 (UniProt Q15418)
# SPHK1 = SPHK1 (UniProt Q9NYA1)
# SRC = SRC (UniProt P12931)
# STK24 = STK24 (UniProt Q9Y6E0)
# STK38 = STK38 (UniProt Q15208)
# SYK = SYK (UniProt P43405)
# TEC = TEC (UniProt P42680)
# TYK2 = TYK2 (UniProt P29597)
# ULK3 = ULK3 (UniProt Q6PHR2)
Structure (SMILES),number of time points (PRKCA),number of time points (PTK2),number of time points (PTK2B),number of time points (RAF1),number of time points [1],number of time points (RET),number of time points [2],number of time points (RIOK1),number of time points (RIPK1),number of time points (RIPK2),number of time points (ROR2),number of time points (RPS6KA1),number of time points (SPHK1),number of time points (SRC),number of time points (STK24),number of time points (STK38),number of time points (SYK),number of time points (TEC),number of time points (TYK2),number of time points (ULK3)
Cc1ccc(NC(=O)c2cccc(N(C)C)c2)cc1NC(=O)c1ccc(O)cc1 (10 µM),0,0,0,0,0,0,0,0,0,0,0,0,0,0,0,0,0,0,0,0
COc1cc2ncnc(Nc3cccc(Cl)c3F)c2cc1OC(=O)N1CCN(C)C[C@H]1C [Zorifertinib] (10 µM),0,0,0,0,0,0,0,0,0,0,0,0,0,0,0,0,0,0,0,0
CNC(=O)c1cc(Oc2ccc(NC(=O)Nc3cc(C(C)(C)C)nn3-c3ccc4ncccc4c3)c(F)c2)ccn1 [Rebastinib] (2.5 µM),0,2,2,3,3,3,3,3,3,4,0,0,0,0,0,2,1,2,3,4
CCN(CCCOc1ccc2c(Nc3cc(CC(=O)Nc4cccc(F)c4)[nH]n3)ncnc2c1)CCOP(=O)(O)O [Barasertib] (10 µM),0,0,0,0,0,0,0,0,0,0,0,0,0,0,0,0,0,0,0,0
C=CC(=O)N1C[C@H](Nc2ncnc3[nH]ccc23)CC[C@@H]1C [Ritlecitinib] (10 µM),0,0,0,0,0,0,0,0,0,0,0,0,0,0,3,0,0,0,0,0
Cc1ccc2c(Nc3ccc(Cl)cc3)nccc2c1Nc1ncccc1-c1ncnc2nc[nH]c12 [Raf inhibitor 1] (2.5 µM),0,0,0,0,0,0,0,0,0,0,0,0,0,0,0,0,0,0,0,0
C=CC(=O)N[C@H]1COC[C@H]1Nc1ncc2cc(-c3c(Cl)c(OC)cc(OC)c3Cl)c(=O)n(C)c2n1 (10 µM),0,0,0,0,0,0,0,0,0,0,0,0,0,0,0,0,0,0,0,0
N#Cc1ccc2[nH]c(O)c(-c3ccc(CN4CCOCC4)cn3)c2c1 (10 µM),0,0,0,0,0,0,0,0,0,0,0,0,0,0,0,0,0,0,0,0
CC(C)(C)c1nc2c3cc[nH]c(=O)c3c3cc(F)ccc3c2[nH]1 [Pyridone 6] (10 µM),0,0,0,0,0,0,0,0,0,0,0,0,0,0,0,0,0,0,0,0
CNC(=O)c1cccc(-c2ccc3c(N4CCOC[C@@H]4C)nc(N4CCOC[C@@H]4C)nc3n2)c1 [Vistusertib] (2.5 µM),0,0,0,4,2,4,5,0,4,3,0,0,0,0,0,2,0,0,4,3
O=c1oc2c(O)c(O)cc3c(=O)oc4c(O)c(O)cc1c4c23 [Ellagic acid] (10 µM),0,0,0,0,0,0,0,0,0,0,0,0,0,0,0,0,0,0,0,0

# 2 compounds from above, showing only number of time points (RAF1) and number of time points (SRC):
Structure (SMILES)	number of time points (RAF1)	number of time points (SRC)
COc1cc2ncnc(Nc3cccc(Cl)c3F)c2cc1OC(=O)N1CCN(C)C[C@H]1C [Zorifertinib] (10 µM)	0	0
O=c1oc2c(O)c(O)cc3c(=O)oc4c(O)c(O)cc1c4c23 [Ellagic acid] (10 µM)	0	0
